Values of other authors in patent publication US9554996B2, “Compositions and methods for delivery of poorly soluble drugs” (Nanotherapeutics, Inc., priority 2007, dated 2017).
Some of these results come from one statement about several compounds together.

Details: water

COc1ccc2c3c1O[C@H]1C(=O)CC[C@@]4(O)[C@@H](C2)N(C)CC[C@]314 [oxycodone base, oxycodone]
solubility at neutral pH: less than 1 mg/ml
